Measurements from patent US20210130420A1, “RECOMBINANT BINDING PROTEINS TARGETING HER2 AND SERUM ALBUMIN, AND THEIR USES” (Molecular Partners AG, priority 2016, published 2021).
Some results were stated once for a whole list of compounds, not compound by compound.

Protein sequences, listed by entry. Tags and fused reporters are not part of them. Residues count along the entry.
UniProt P07724, 25-608: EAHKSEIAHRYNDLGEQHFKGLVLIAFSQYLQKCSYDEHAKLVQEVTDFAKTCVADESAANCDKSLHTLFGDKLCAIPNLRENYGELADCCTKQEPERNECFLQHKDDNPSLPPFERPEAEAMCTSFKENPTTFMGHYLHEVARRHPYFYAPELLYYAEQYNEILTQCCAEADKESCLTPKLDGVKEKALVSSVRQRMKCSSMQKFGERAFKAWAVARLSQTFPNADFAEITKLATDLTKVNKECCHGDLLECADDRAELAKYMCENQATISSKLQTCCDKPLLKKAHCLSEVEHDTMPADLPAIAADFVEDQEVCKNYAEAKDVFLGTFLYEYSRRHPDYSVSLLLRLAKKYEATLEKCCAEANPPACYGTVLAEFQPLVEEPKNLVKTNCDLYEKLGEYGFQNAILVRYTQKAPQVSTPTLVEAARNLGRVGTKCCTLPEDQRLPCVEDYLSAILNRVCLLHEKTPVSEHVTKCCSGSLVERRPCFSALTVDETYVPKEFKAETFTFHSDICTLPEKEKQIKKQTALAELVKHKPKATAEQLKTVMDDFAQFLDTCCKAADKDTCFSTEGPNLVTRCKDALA
UniProt A2V9Z4, 25-608: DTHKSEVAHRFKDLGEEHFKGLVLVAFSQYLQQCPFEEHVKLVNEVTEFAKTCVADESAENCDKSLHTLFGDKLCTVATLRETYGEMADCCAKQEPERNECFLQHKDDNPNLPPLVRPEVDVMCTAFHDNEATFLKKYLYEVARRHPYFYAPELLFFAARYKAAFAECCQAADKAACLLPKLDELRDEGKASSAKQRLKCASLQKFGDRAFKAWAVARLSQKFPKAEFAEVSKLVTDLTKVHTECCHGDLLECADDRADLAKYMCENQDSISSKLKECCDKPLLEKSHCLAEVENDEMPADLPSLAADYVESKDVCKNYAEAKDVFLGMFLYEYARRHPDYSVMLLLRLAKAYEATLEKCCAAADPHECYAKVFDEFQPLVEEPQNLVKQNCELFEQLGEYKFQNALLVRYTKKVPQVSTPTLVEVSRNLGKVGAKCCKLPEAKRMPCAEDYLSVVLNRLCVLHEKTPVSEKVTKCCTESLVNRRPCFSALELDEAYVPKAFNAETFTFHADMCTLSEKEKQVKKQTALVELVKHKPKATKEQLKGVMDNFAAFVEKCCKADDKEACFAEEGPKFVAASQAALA

Assays:
[1] = Storage stability in PBS analysed by SDS-PAGE; type: physicochemical; conditions: 10 mg/ml in PBS, glass vials, 1 month at 40° C., SDS 15% PAGE
Procedure: “Improved storage stability” in the context of the present invention means the reduction of the amounts of a degradation band, preferably the reduction of the amount of degradation products, as detected by a Coomassie-stained SDS-PAGE occurring after storage at 40° C. for 1 month at 10 mg/ml in PBS, by at least 5%, 10%, 15%, 20%, 25%, 30%, 35%, 40%, 45%, 50%, or 50%. Methods to assess storage stability by SDS-PAGE are well known to the person skilled in the art. Examples of designed ankyrin repeat domains and recombinant binding proteins with improved storage stability properties are given in Examples 2 and 3.
Protein #13-His, Protein #14-His and Protein #15-His were prepared as described in Example 1, and samples were concentrated to 10 mg/ml in PBS. Protein #14-His and Protein #15-His where then stored for 1 month at −80° C. or at 40° C. in glass vials, followed by analysis on SDS 15% PAGE. […] These findings illustrate that Protein #14-His has improved storage stability compared to Proteins #13-His and Protein #15-His.
A storage stability improvement is also observed, when testing the storage stability of Protein #21 and Protein #22 (recombinant binding proteins consisting of the amino acid sequences corresponding to SEQ ID NOs: 21 and 22, respectively). Protein #21 and Protein #22 are prepared as described in Example 1, samples are concentrated to 10 mg/ml in PBS and stored for 1 month at −80° C. in or at 40° C. in glass vials, followed by analysis on standard size-exclusion chromatography.

mouse serum albumin = mouse serum albumin (Mus musculus, UniProt P07724); assay: Surface plasmon resonance (ProteOn) binding to serum albumin; conditions: pH 7.4 in PBS; read-out: dissociation constant (Kd) to mouse serum albumin
[2] = biological target: cynomolgus monkey serum albumin (Macaca fascicularis, UniProt A2V9Z4); assay: as above; conditions: pH 7.4 in PBS; read-out: dissociation constant (Kd) to cynomolgus monkey serum albumin
human serum albumin = human serum albumin (Homo sapiens, UniProt P02768); assay: as above; conditions: pH 7.4 in PBS; read-out: dissociation constant (Kd) to human serum albumin

Row | Molecule | reduction of degradation products compared to Protein #15-His [1] [%] | Kd (mouse serum albumin) [nM] | Kd [2] [nM] | Kd (human serum albumin) [nM]
1 | Protein #14-His: SEQ ID NO: 14 with a His-tag; stability-improved serum albumin binding designed ankyrin repeat domain, aspartate 80 of SEQ ID NO: 13 mutated to glutamate (protein, His-tag; Designed ankyrin repeat domain) GSDLGKKLLEAARAGQDDEVRELLKAGADVNAKDYFSHTPLHLAARNGHLKIVEVLLKAGADVNAKDFAGKTPLHLAANEGHLEIVEVLLKAGADVNAQDIFGKTPADIAADAGHEDIAEVLQKAA | > 30 | < 100 | < 100 | < 100
2 | Protein #13-His: SEQ ID NO: 13 with a His-tag; designed ankyrin repeat domain with binding specificity for serum albumin (WO2012/069654) (protein, His-tag; Designed ankyrin repeat domain) GSDLGKKLLEAARAGQDDEVRELLKAGADVNAKDYFSHTPLHLAARNGHLKIVEVLLKAGADVNAKDFAGKTPLHLAANDGHLEIVEVLLKAGADVNAQDIFGKTPADIAADAGHEDIAEVLQKAA | > 30 | < 100 | < 100 | < 100
3 | Protein #12-His: SEQ ID NO: 12 with a His-tag; designed ankyrin repeat domain with binding specificity for serum albumin (WO2012/069654) (protein, His-tag; Designed ankyrin repeat domain) GSDLGKKLLEAARAGQDDEVRILLKAGADVNAKDYFSHTPLHLAARNGHLKIVEVLLKAGADVNAKDFAGKTPLHLAANDGHLEIVEVLLKAGADVNAQDIFGKTPADIAADAGHEDIAEVLQKAA | > 30 |  |  | 
